# Data published in the supplement of paper PMC4604168 (melanoma cell lines).
# The list shows a part of the results. Single values are uncertain, as repeats are few or missing.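 Cells were imaged in 1,536-well plates, and nuclei stained with an antibody against cleaved PARP were counted against all DNA-stained nuclei to give the apoptosis fraction. Screening doses were chosen to leave most cells alive, and resting and induced cleaved-PARP levels differ strongly between cell lines.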
# System: WM3619
# Assay: cleaved PARP positive nuclei fraction relative to DMSO control; melanoma cells; higher = more apoptosis
# Settings: library dose: low library concentration; 72 h
row,SMILES,cleaved PARP positive nuclei fraction
1,"Cc1cc(Nc2cc(N3CCN(C)CC3)nc(Sc3ccc(NC(=O)C4CC4)cc3)n2)n[nH]1 [Tozasertib] + O=C(Oc1ccc([N+](=O)[O-])cc1)N1CCC(C(O)(c2ccc3c(c2)OCO3)c2ccc3c(c2)OCO3)CC1 [JZL184] (first compound 0.006 µM, partner dose 1 µM)",87%
2,"CCN(CC)CCCCNc1ncc2cc(-c3cc(OC)cc(OC)c3)c(NC(=O)NC(C)(C)C)nc2n1 + O=C(Oc1ccc([N+](=O)[O-])cc1)N1CCC(C(O)(c2ccc3c(c2)OCO3)c2ccc3c(c2)OCO3)CC1 [JZL184] (first compound 0.1 µM, partner dose 1 µM)",93.7%
3,"N.N.[Cl][Pt][Cl] [cisplatin] + CC(=O)c1c(C)c2cnc(Nc3ccc(N4CCNCC4)cn3)nc2n(C2CCCC2)c1=O [palbociclib] (first compound 1.6 µM, partner dose 0.04 µM)",103%
4,"C[C@]12O[C@H](C[C@]1(O)CO)n1c3ccccc3c3c4c(c5c6ccccc6n2c5c31)CNC4=O [Lestaurtinib] + C#Cc1cccc(Nc2ncnc3cc(OCCOC)c(OCCOC)cc23)c1 [erlotinib] (first compound 0.004 µM, partner dose 0.8 µM)",105%
5,"Cn1cc(C2=C(c3cn(C4CCN(Cc5ccccn5)CC4)c4ccccc34)C(=O)NC2=O)c2ccccc21 [Enzastaurin] + CNC(=O)c1cc(Oc2ccc(NC(=O)Nc3ccc(Cl)c(C(F)(F)F)c3)cc2)ccn1 [sorafenib] (first compound 0.8 µM, partner dose 0.4 µM)",86.4%
6,"OCc1c[nH]c2ccccc12 [Indole-3-carbinol] + C[As](C)SC[C@H](NC(=O)CC[C@H](N)C(=O)O)C(=O)NCC(=O)O [Darinaparsin] (first compound 0.8 µM, partner dose 0.4 µM)",90.8%
7,"C[C@]12O[C@H](C[C@]1(O)CO)n1c3ccccc3c3c4c(c5c6ccccc6n2c5c31)CNC4=O [Lestaurtinib] + CS(=O)(=O)CCNCc1ccc(-c2ccc3ncnc(Nc4ccc(OCc5cccc(F)c5)c(Cl)c4)c3c2)o1 [lapatinib] (first compound 0.004 µM, partner dose 0.8 µM)",86%
8,"C/C(O)=C(\C#N)C(=O)Nc1cc(Br)ccc1Br + O=C(Oc1ccc([N+](=O)[O-])cc1)N1CCC(C(O)(c2ccc3c(c2)OCO3)c2ccc3c(c2)OCO3)CC1 [JZL184] (first compound 2 µM, partner dose 1 µM)",103%
9,"C[As](C)SC[C@H](NC(=O)CC[C@H](N)C(=O)O)C(=O)NCC(=O)O [Darinaparsin] + Cc1cc(N2CCOCC2)cc2[nH]c(-c3c(NC[C@@H](O)c4cccc(Cl)c4)cc[nH]c3=O)nc12 [BMS536924] (first compound 0.4 µM, partner dose 0.2 µM)",101%
10,"N.N.[Cl][Pt][Cl] [cisplatin] + Clc1ccc(Nc2nnc(Cc3ccncc3)c3ccccc23)cc1 [vatalanib] (first compound 1.6 µM, partner dose 2 µM)",115%
11,"C/C(O)=C(\C#N)C(=O)Nc1cc(Br)ccc1Br + O=C1NC(=O)/C(=C/c2ccc(-c3ccc(F)cc3O)o2)S1 [AS252424] (first compound 2 µM, partner dose 1 µM)",98.8%
12,"Cn1cc(C2=C(c3cn(C4CCN(Cc5ccccn5)CC4)c4ccccc34)C(=O)NC2=O)c2ccccc21 [Enzastaurin] + COc1cc2ncnc(Nc3ccc(Oc4ccccc4)cc3)c2cc1OC [SrcI1] (first compound 0.8 µM, partner dose 2 µM)",112%
13,"C[C@]1(c2nc3c(C(N)=O)cccc3[nH]2)CCCN1 [Veliparib] + C/C(O)=C(\C#N)C(=O)Nc1cc(Br)ccc1Br [LFM-A13] (first compound 1.4 µM, partner dose 2 µM)",80.6%
14,"N.N.[Cl][Pt][Cl] [cisplatin] + COc1cc(Nc2ncc(F)c(Nc3ccc4c(n3)NC(=O)C(C)(C)O4)n2)cc(OC)c1OC [Tamatinib] (first compound 1.6 µM, partner dose 0.4 µM)",130%
15,"N.N.[Cl][Pt][Cl] [cisplatin] + Nc1ncn([C@H]2C[C@H](O)[C@@H](CO)O2)c(=O)n1 [decitabine] (first compound 1.6 µM, partner dose 0.1 µM)",108%
16,"CNC(=O)c1cc(Oc2ccc(NC(=O)Nc3ccc(Cl)c(C(F)(F)F)c3)cc2)ccn1 [sorafenib] + C[As](C)SC[C@H](NC(=O)CC[C@H](N)C(=O)O)C(=O)NCC(=O)O [Darinaparsin] (first compound 0.4 µM, partner dose 0.4 µM)",105%

# Exported with bars between the fields: part of the list above.
row | SMILES | cleaved PARP positive nuclei fraction
3 | N.N.[Cl][Pt][Cl] [cisplatin] + CC(=O)c1c(C)c2cnc(Nc3ccc(N4CCNCC4)cn3)nc2n(C2CCCC2)c1=O [palbociclib] (first compound 1.6 µM, partner dose 0.04 µM) | 103%
4 | C[C@]12O[C@H](C[C@]1(O)CO)n1c3ccccc3c3c4c(c5c6ccccc6n2c5c31)CNC4=O [Lestaurtinib] + C#Cc1cccc(Nc2ncnc3cc(OCCOC)c(OCCOC)cc23)c1 [erlotinib] (first compound 0.004 µM, partner dose 0.8 µM) | 105%
